Measured values published in patent US20250147051A1, “METHOD FOR DETECTING A TAU PROTEIN IN A SALIVA SAMPLE” (GTINVENT LIMITED, priority 2022, published 2025).
Results are given in words; binding and its absence hold for the method and conditions named. Some results given as binding are weak or reduced against the parent protein; the word gives no strength.

By UniProt entry, the sequences of proteins in these tests, tags left out. Where a name states a change or a piece, a line headed by the entry shows the natural chain unless it says otherwise.
UniProt P10637: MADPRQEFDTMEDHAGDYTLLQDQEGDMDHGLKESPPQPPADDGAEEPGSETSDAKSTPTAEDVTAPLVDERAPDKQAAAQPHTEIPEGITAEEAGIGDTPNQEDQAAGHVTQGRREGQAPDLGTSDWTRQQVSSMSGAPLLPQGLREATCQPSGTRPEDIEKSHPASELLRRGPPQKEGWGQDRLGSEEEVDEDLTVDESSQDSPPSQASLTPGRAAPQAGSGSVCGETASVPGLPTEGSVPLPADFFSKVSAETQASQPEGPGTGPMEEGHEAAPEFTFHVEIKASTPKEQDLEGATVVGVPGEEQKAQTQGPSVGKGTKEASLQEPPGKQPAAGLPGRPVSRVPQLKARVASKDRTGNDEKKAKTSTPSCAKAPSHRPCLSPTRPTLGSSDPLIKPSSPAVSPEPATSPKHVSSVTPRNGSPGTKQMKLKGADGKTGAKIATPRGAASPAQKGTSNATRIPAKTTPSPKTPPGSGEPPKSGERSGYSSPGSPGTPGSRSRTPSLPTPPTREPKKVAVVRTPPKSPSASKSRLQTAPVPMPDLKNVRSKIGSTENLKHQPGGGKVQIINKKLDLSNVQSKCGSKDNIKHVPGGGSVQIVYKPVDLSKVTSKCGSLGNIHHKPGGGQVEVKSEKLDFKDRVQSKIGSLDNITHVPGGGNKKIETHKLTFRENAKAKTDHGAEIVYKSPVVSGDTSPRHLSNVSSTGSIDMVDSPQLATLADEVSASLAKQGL
UniProt P10636: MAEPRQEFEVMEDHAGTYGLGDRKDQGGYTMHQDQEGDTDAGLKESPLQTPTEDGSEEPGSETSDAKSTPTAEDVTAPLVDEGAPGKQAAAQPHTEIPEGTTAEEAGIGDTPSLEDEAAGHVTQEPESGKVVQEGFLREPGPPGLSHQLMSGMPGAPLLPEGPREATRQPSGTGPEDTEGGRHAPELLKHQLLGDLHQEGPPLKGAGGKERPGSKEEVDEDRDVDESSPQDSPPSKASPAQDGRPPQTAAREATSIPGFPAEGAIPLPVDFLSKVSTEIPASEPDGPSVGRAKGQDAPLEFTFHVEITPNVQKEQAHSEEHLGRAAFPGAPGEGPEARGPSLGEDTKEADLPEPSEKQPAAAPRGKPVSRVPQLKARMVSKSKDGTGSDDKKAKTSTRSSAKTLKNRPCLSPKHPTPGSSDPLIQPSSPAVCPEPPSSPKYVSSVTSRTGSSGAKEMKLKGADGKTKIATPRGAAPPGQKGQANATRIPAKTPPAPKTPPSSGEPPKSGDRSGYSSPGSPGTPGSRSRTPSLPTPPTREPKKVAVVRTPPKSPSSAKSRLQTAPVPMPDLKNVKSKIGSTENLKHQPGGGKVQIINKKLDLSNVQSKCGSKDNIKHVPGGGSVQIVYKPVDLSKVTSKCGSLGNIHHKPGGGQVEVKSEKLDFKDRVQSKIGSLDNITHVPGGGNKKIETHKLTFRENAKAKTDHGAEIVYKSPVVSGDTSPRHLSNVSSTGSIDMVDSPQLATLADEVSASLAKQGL

Legend:
[1] = biological target: mouse tau (Isoform Tau-A) (mouse) (UniProt P10637); test: sandwich ELISA on brain homogenate (incl. wild type), S1G2 scAb detection
[2] = biological target: mouse tau (Isoform Tau-A) (mouse) (UniProt P10637); test: sandwich ELISA on plasma, S1G2 scAb detection
[3] = biological target: human tau 296-390 (Line 1 transgene fragment) (human) (UniProt P10636); test: sandwich ELISA on plasma, S1G2 scAb detection
[4] = biological target: mouse tau (Isoform Tau-A) (mouse) (UniProt P10637); test: Western blot
[5] = biological target: mouse tau (Isoform Tau-A) (mouse) (UniProt P10637); test: Western blot of brain homogenates
[6] = biological target: human tau 296-390 (Line 1 transgene fragment) (human) (UniProt P10636); test: Western blot
[7] = biological target: human tau 296-390 (Line 1 transgene fragment) (human) (UniProt P10636); test: Western blot of brain homogenates
[8] = biological target: tau fragment 1-319 (human) (UniProt P10636); test: ELISA
[9] = biological target: full length human tau protein 2N4R (hT40) (human) (UniProt P10636); test: ELISA
[10] = biological target: mouse tau (Isoform Tau-A) (mouse) (UniProt P10637); test: sandwich ELISA on plasma, S1D12 mAb capture
[11] = biological target: human tau 296-390 (Line 1 transgene fragment) (human) (UniProt P10636); test: sandwich ELISA on plasma, S1D12 mAb capture
[12] = biological target: mouse tau (Isoform Tau-A) (mouse) (UniProt P10637); test: sandwich ELISA on brain homogenate (incl. wild type), S1D12 mAb capture

Measured: binding

B1: S1D12 mAb (antibody, mouse IgG2a, V domains shown)
VH: QVQLQESGPSLVKPSQTLSLTCTVSGFSLNNNAVGWVRQAPGKVPESLVGCSSDGTCYYNSALKSRLDITRDTSKNQISLSLSSVTTDDAAVYYCTRGHYSIYGYDYLGTIDYWGPGLLVTVSS
VL: QAVLTQPSSVSGSLGQRVSITCSGSSSNVGGGNSVGWYQHLPGSGLKTIIYDTNSRPSGVPDRFSGSRSGNTATLTINSLQAEDEGDYYCVTGDSTTHDDLVGSGTRLTVLG
binds: [1] | [2] | [3] | [4] | [5]

B2: S1G2 mAb (antibody, mouse IgG2a, V domains shown)
VH: QVQLQESGPSLVKPSQTLSLTCTVSGFSLTSNSVGWVRQAPGKAPEWVAGIDTDGEEGYNPALNSRLSITRDTSKSQVSLSLSSVTSEDTAVYYCGRSYRADGLAYGYVQAIDYWGPGLLVTVSS
VL: QAVVTQPSSVSGSLGQRVSITCSGSFIGISSVGWFQQLPGSGLRTIIVASDGRPSGVPDRFSMSKSGNTATLTISSLQAEDEADYFCGSSDRTPYTGVFGSGTRLTVLG
binds: [4] | [6] | [5] | [7]

B3: CA7 scAb (scFv, V domains shown)
VH: RVRLQGSGPSLVKPSQTLSLTCTVSGFSFDSYYVGWVRQAPGKALEWLGNIYSTGRAFYNPALKSRLSITRDTSKSQVSLSVSSVTIEDTALYYCVRGSYYHGGGNGMVDFFDYWSPGLLVTVSS
VL: QVVRTQPSSVSGSLGQRVSITCSGSSSNVGYGNYVGWFQQVPGSAPKLLIYAATSRASGVPDRFSGSRSGNTATLTIDSLQAEDEADYYCSSYQRGNTGVFGSGTRLTVLG
binds: [8] | [9]

B4: S1E12 mAb (antibody, mouse IgG2a, V domains shown)
VH: QVQLQESGPSLVKPSQTLSLTCTVSGFSLGSNSVGWVRQAPGKAPEWVAGIDTDGEEGYNPALNSRLSITRDTSKSQVSLSLSSVTSEDTAVYYCGRSYRADGLAYGYVQAIDYWGPGLLVTVSS
VL: RVVRTQPSSVSGSLGQRVSITCSGSFIGISSVGWFQQLPGSGLRTIIVASDGRPSGVPDRFSMSKSGNTATLTISSLQAEDEADYFCGSSDRTQYTGVFGSGTRLTVLG
binds: [9]

B5: S1G2 scAb (scFv)
scFv: QVQLQESGPSLVKPSQTLSLTCTVSGFSLTSNSVGWVRQAPGKAPEWVAGIDTDGEEGYNPALNSRLSITRDTSKSQVSLSLSSVTSEDTAVYYCGRSYRADGLAYGYVQAIDYWGPGLLVTVSSEGKSSGASGESKVDDQAVVTQPSSVSGSLGQRVSITCSGSFIGISSVGWFQQLPGSGLRTIIVASDGRPSGVPDRFSMSKSGNTATLTISSLQAEDEADYFCGSSDRTPYTGVFGSGTRLTVLG
binds: [10] | [11] | [12]
